Experimental data: PubChem BioAssay AID652248 (Drosophila RNAi Screening Center, 2013)

Purpose: 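Kinase and phosphatase regulators of cell lengthening and shape variety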 (primary screen)
System: cultured Drosophila hemocytes
Knock-down reagent: long dsRNA against Drosophila genes
Detection: 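Automated microscopy of stained actin, tubulin and nuclei; single-cell shape measures assigned to five reference shape types, giving a score per dsRNA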
Reading the numbers: elongated score: higher = more elongated bipolar cells
Active means: 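a gene counts as active when its knock-down clearly increases the elongated score; a low similarity score was then used to rank the actives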
Here is a random part of 863 reagents. Over the whole deposit, 32 (3.7%) are marked active. 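Calls also used reproducibility and a similarity ranking whose scores are not deposited; many active genes show only modest elongated scores.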 Names joined by + are all predicted targets of the reagent. Further read-outs or replicates are left out here. Not stated in the record: the amount of reagent, the time to read-out.

Gene | dsRNA | elongated score, rep 1 | elongated score, rep 2 | call
ssh (slingshot) | DRSC16730 | 1.42 | – | inactive
ssh (slingshot) | DRSC28782 | 1.93 | – | inactive
CR43670 + grp + CR43671 + 1 more | DRSC03541 | 0.05 | – | inactive
Ptpa (Phosphotyrosyl phosphatase activator) | DRSC00776 | -0.16 | – | inactive
Ptpa (Phosphotyrosyl phosphatase activator) | DRSC28747 | 1.9 | – | inactive
PEK (pancreatic eIF-2alpha kinase) | DRSC12361 | -0.03 | -0.26 | inactive
CG8509 | DRSC20109 | 0.78 | – | inactive
Cmpk (Cytidine/uridine monophosphate kinase 1) | DRSC16643 | 0.25 | – | inactive
Ocrl (Oculocerebrorenal syndrome of Lowe) | DRSC18576 | -0.53 | – | inactive
CG5790 | DRSC02896 | 0.6 | – | inactive
CG5790 | DRSC26201 | -0.14 | – | inactive
P58IPK | DRSC16404 | 0.46 | – | inactive
P58IPK | DRSC27012 | -0.26 | – | inactive
gish (gilgamesh) | DRSC16154 | -0.53 | – | inactive
Cdk9 (Cyclin-dependent kinase 9) | DRSC04601 | -0.53 | – | inactive
lic (licorne) | DRSC20347 | 0.16 | – | inactive
CG2964 | DRSC00554 | -0.53 | – | inactive
CG2964 | DRSC27524 | -0.07 | – | inactive
Pdk (Pyruvate dehydrogenase kinase) | DRSC07504 | 0.02 | – | inactive
Gprk2 (G protein-coupled receptor kinase 2) | DRSC16682 | -0.53 | -0.16 | inactive
Gprk2 (G protein-coupled receptor kinase 2) | DRSC23336 | 0.4 | – | inactive
Ask1 (Apoptotic signal-regulating kinase 1) | DRSC16789 | -0.53 | – | inactive
Ask1 (Apoptotic signal-regulating kinase 1) | DRSC21697 | 0.44 | – | inactive
gek (genghis khan) | DRSC04688 | 1 | – | inactive
Klp67A + CG34456 | DRSC10420 | -0.27 | – | inactive
smal (smoke alarm) | DRSC02318 | 1.26 | -0.09 | inactive
smal (smoke alarm) | DRSC02319 | -0.11 | – | inactive
smal (smoke alarm) | DRSC02504 | -0.11 | – | inactive
smal (smoke alarm) | DRSC22866 | 0.95 | – | inactive
smal (smoke alarm) | DRSC26352 | 4.55 | – | inactive
ND-MWFE (NADH dehydrogenase (ubiquinone) MWFE subunit) | DRSC06364 | -0.53 | – | inactive
Ptp4E (Protein tyrosine phosphatase 4E) | DRSC18701 | 6.53 | -0.53 | inactive
Ptpmeg2 (Protein tyrosine phosphatase Meg2) | DRSC18277 | -0.45 | – | inactive
Ptpmeg2 (Protein tyrosine phosphatase Meg2) | DRSC18278 | -0.53 | – | inactive
Ptpmeg2 (Protein tyrosine phosphatase Meg2) | DRSC23303 | -0.29 | – | inactive
Ptpmeg2 (Protein tyrosine phosphatase Meg2) | DRSC26646 | 0.21 | – | inactive
CG5757 | DRSC06951 | 0.26 | – | inactive
Pp1-13C (Protein phosphatase 1 at 13C) | DRSC20269 | -0.01 | – | inactive
Pp1-13C (Protein phosphatase 1 at 13C) | DRSC23305 | 0.75 | – | inactive
Pp1-13C (Protein phosphatase 1 at 13C) | DRSC27492 | -0.3 | – | inactive
mRNA-cap (mRNA-capping-enzyme) | DRSC19789 | 8.67 | – | inactive

The list goes on (7 carried over from the part before).
Gene | dsRNA | elongated score, rep 1 | elongated score, rep 2 | call
Ptpmeg2 (Protein tyrosine phosphatase Meg2) | DRSC23303 | -0.29 | – | inactive
Ptpmeg2 (Protein tyrosine phosphatase Meg2) | DRSC26646 | 0.21 | – | inactive
CG5757 | DRSC06951 | 0.26 | – | inactive
Pp1-13C (Protein phosphatase 1 at 13C) | DRSC20269 | -0.01 | – | inactive
Pp1-13C (Protein phosphatase 1 at 13C) | DRSC23305 | 0.75 | – | inactive
Pp1-13C (Protein phosphatase 1 at 13C) | DRSC27492 | -0.3 | – | inactive
mRNA-cap (mRNA-capping-enzyme) | DRSC19789 | 8.67 | – | inactive
PhKgamma (Phosphorylase kinase gamma) | DRSC20268 | -0.53 | – | inactive
PhKgamma (Phosphorylase kinase gamma) | DRSC27226 | 0.28 | – | inactive
Magi | DRSC04247 | 0.54 | – | inactive
Magi | DRSC04451 | -0.33 | – | inactive
Magi | DRSC26209 | -0.53 | – | inactive
Nuak (Nuak family kinase) | DRSC14414 | -0.53 | – | inactive
Nuak (Nuak family kinase) | DRSC14415 | 0.39 | – | inactive
CycD (Cyclin D) | DRSC20233 | -0.11 | – | inactive
CycD (Cyclin D) | DRSC25031 | -0.53 | – | inactive
mbt (mushroom bodies tiny) | DRSC23020 | -0.53 | – | inactive
mbt (mushroom bodies tiny) | DRSC25818 | 0.3 | – | inactive
wun (wunen) | DRSC07719 | 0.74 | – | inactive
aurB (aurora B) | DRSC03548 | 1.22 | – | inactive
aurB (aurora B) | DRSC23324 | 0.82 | – | inactive
PpV (Protein phosphatase V) | DRSC18700 | -0.53 | – | inactive
PpV (Protein phosphatase V) | DRSC23307 | 1.24 | – | inactive
PpV (Protein phosphatase V) | DRSC29344 | 2.25 | – | inactive
Cad96Ca (Cadherin 96Ca) | DRSC14220 | 2.22 | – | inactive
Cad96Ca (Cadherin 96Ca) | DRSC16693 | 1.38 | – | inactive
aux (auxilin) | DRSC12161 | -0.03 | – | inactive
aux (auxilin) | DRSC28178 | 0.28 | – | inactive
CycH (Cyclin H) | DRSC11861 | -0.13 | – | inactive
CycH (Cyclin H) | DRSC21308 | -0.53 | – | inactive
sdt (stardust) | DRSC17556 | 0.14 | – | inactive
sdt (stardust) | DRSC17860 | -0.53 | – | inactive
sdt (stardust) | DRSC17861 | -0.3 | – | inactive
sdt (stardust) | DRSC18108 | -0.53 | – | inactive
sdt (stardust) | DRSC26851 | -0.53 | – | inactive
